Laboratory results as given in PMC4493090.
No constants are given. Whether binding was seen depends on the method and setting. Binding calls can cover weak binding; strength is not graded here. For some assays here: In cells and extracts the contact can be indirect.

Chains of the proteins cited; added tags and fusions are not shown. Lines headed by an entry give the natural chain unless they say otherwise; changes in a name come on top. A line that says so, or that is headed by a name, gives the form on record, which may keep a tag or linker. Residues count along the entry.
UniProt Q8C863: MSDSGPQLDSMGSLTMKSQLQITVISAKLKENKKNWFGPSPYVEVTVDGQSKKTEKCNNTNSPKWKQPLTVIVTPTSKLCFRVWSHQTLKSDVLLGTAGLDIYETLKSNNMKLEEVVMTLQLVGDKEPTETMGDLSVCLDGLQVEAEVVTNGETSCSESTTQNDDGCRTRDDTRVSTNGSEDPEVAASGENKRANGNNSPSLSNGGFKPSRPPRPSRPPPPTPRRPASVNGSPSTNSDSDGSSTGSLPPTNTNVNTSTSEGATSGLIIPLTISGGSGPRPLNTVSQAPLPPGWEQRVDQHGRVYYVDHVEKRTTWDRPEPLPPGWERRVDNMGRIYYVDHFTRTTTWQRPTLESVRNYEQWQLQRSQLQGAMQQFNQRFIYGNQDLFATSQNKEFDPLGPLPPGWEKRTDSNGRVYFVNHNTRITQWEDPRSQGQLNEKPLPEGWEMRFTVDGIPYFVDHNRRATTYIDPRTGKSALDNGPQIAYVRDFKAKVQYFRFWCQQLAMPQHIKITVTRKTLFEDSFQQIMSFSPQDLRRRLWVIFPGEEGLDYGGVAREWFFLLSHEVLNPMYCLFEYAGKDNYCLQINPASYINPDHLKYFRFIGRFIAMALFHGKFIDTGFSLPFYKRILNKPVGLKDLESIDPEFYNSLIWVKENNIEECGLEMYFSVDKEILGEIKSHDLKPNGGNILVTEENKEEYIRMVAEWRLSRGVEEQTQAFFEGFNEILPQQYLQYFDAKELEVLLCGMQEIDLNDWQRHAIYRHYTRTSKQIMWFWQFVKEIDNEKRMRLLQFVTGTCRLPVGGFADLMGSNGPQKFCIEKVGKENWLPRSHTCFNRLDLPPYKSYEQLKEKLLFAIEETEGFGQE
Itch-Δ-HECT (aa 1–477): residues 1-477 of Q8C863
Itch-Δ-C2 (aa 274–806): residues 274-806 of Q8C863
Myc-tagged WW-domains of Itch (aa 274–477): residues 274-477 of Q8C863
Myc-tagged WW-domains of NEDD4 (P46935, residues 238-497): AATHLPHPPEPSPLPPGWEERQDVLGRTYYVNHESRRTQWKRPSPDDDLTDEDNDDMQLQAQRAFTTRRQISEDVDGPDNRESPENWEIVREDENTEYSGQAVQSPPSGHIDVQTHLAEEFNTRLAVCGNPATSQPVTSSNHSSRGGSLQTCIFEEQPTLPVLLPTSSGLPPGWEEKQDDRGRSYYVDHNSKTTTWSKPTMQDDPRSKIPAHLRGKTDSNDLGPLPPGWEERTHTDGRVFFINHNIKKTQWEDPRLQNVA
Nedd4 (393–444), two-hybrid prey (P46935, residues 393-444): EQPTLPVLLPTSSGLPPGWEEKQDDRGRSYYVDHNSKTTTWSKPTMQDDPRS
UniProt Q9HAU4: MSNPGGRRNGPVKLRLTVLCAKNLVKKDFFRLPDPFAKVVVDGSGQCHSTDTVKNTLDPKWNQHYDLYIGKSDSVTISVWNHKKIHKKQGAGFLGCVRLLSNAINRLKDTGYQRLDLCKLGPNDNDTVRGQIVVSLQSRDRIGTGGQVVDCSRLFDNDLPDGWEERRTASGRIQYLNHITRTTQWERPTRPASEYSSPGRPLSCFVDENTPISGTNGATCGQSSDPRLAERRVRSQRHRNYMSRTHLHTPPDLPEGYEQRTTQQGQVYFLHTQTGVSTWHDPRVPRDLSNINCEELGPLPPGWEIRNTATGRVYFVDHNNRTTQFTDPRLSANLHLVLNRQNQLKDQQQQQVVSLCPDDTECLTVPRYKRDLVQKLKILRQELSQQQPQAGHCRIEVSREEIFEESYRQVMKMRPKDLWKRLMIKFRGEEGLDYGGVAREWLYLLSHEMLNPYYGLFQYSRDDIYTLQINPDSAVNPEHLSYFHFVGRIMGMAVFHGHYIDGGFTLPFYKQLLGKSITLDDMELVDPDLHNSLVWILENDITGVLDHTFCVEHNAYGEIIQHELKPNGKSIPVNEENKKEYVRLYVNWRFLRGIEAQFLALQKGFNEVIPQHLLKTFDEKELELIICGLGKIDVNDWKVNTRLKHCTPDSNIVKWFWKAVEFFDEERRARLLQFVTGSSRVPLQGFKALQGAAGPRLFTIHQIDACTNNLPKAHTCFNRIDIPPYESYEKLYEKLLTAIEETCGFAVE
Myc-tagged WW-domains of Smurf2: residues 143-334 of Q9HAU4
UniProt Q6XP49: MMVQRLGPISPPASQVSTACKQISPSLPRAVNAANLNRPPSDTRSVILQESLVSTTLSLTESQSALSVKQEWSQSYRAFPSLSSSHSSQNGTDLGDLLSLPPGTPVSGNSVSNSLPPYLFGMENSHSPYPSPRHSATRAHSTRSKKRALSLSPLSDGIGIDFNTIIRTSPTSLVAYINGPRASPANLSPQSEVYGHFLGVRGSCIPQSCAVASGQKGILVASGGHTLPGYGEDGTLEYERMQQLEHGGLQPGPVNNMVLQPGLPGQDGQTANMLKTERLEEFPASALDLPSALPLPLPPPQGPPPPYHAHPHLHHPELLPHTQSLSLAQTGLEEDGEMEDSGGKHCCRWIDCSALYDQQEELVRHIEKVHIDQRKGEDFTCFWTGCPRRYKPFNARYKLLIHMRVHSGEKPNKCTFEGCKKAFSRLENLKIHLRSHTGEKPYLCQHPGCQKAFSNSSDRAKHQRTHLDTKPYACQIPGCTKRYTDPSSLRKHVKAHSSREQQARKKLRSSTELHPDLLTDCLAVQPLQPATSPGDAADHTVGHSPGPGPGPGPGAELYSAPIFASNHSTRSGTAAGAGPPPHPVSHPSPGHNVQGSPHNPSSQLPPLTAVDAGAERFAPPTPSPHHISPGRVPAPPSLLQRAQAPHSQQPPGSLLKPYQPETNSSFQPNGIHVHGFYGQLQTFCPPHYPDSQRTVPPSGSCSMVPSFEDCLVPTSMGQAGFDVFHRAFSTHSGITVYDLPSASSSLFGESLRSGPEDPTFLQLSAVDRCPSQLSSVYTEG
UniProt A2A5Z6, residues 150-328: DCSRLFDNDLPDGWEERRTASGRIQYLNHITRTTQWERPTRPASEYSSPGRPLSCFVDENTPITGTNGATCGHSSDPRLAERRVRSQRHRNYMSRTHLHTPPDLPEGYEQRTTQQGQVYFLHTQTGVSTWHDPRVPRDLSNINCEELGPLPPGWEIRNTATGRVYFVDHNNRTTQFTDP
UniProt Q9DBH0, residues 395-453: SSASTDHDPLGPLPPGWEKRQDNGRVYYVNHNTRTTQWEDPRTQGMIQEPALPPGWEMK

How the values were obtained:
[1] = target: Myc-Itch-C832G (mouse) (UniProt Q8C863); test: co-IP; HEK293T co-transfected with FLAG-Glis3 constructs and Myc-tagged ligases; lysis in 25 mM Tris, 150 mM NaCl, 1 mM EDTA, 1 mM EGTA, 0.5% Nonidet P-40; IP with anti-Myc on Dynabeads, 10 min RT; blot with anti-M2 FLAG-HRP
[2] = target: Myc-NEDD4-C867G (UniProt P46935); test: as above
[3] = target: Myc-Smurf2-C716G (UniProt Q9HAU4); test: as above
[4] = target: Myc-tagged WW-domains of Itch (aa 274–477) (mouse) (UniProt Q8C863); test: as above
[5] = target: Myc-Itch (mouse) (UniProt Q8C863); test: as above
[6] = target: Itch-Δ-C2 (aa 274–806) (mouse) (UniProt Q8C863); test: as above
[7] = target: Itch-Δ-HECT (aa 1–477) (mouse) (UniProt Q8C863); test: as above
[8] = target: Myc-tagged WW-domains of NEDD4 (aa 238–497) (UniProt P46935); test: as above
[9] = target: Myc-tagged WW-domains of Smurf2 (aa 143–334) (UniProt Q9HAU4); test: as above
[10] = target: Glis3(2–500)-LexA fusion protein (mouse) (UniProt F6SGN4); test: two-hybrid; Hybrigenics screen; Glis3 N-terminus-LexA bait (pB27) against a murine pancreatic beta cell (βTC-TET) library in p6; medium without His, Leu, Trp, with 5.0 mM 3-aminotriazole
[11] = target: TnT-Myc Itch (mouse) (UniProt Q8C863); test: pull-down; both proteins transcribed and translated in vitro (TNT); Myc-Itch held on anti-Myc Dynabeads in PBS (30 min RT), FLAG-Glis3 or PY^461 mutant added overnight at 4°C; blot with anti-M2 FLAG-HRP

Substance	binding [1]	binding [2]	binding [3]	binding [10]	further results
FLAG-Glis3-ΔC480 (from UniProt Q6XP49) (domain or fragment)	binds	binds	binds	–	–
FLAG-Glis3-ΔC480 PY^461 mutant (from UniProt Q6XP49) (domain or fragment)	no binding	no binding	no binding	–	–
Itch (224–462), two-hybrid prey (from UniProt Q8C863 224-462) (domain or fragment)	–	–	–	binds	–
Smurf2 (150–328), two-hybrid prey (from UniProt A2A5Z6 150-328) (domain or fragment)	–	–	–	binds	–
TnT-FLAG Glis3 (from UniProt F6SGN4)	–	–	–	–	binding [11]: binds

Continued, in another order:

binding [1]	binding [2]	binding [3]	binding [10]	Substance	further results
binds	no binding	binds weakly	–	FLAG-tagged Glis3 (pCMV10-3xFLAG-Glis3) (from UniProt F6SGN4)	binding [4]: binds; binding [5]: binds; binding [6]: binds; binding [7]: binds; binding [8]: binds; binding [9]: binds
–	–	–	binds	Nedd4 (393–444), two-hybrid prey (from UniProt P46935 393-444) (domain or fragment)	–
–	–	–	binds	Wwp2 (395–453), two-hybrid prey (from UniProt Q9DBH0 395-453) (domain or fragment)	–
